From article PMC10651127
No constants are given. Whether binding was seen depends on the method and setting. In cells and extracts the contact can be indirect. These calls come from enrichment with a bait or labelling near it, and not all partners need be listed.

By UniProt entry, the sequences of proteins in these tests, tags left out. Where a name states a change or a piece, a line headed by the entry shows the natural chain unless it says otherwise.
UniProt Q9S842: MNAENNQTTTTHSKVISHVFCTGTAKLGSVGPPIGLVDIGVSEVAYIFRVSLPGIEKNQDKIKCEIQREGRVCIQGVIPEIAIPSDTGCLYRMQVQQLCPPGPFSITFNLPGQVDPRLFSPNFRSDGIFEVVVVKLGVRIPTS

Legend:
Assay in all cases: affinity purification with mass spectrometry; 3xFLAG-tagged bait from transgenic plants held on anti-FLAG M2 magnetic beads; lysate of 8 to 10 g of inflorescences; IP buffer 50 mM tris-HCl pH 8.0, 150 mM NaCl, 5 mM EDTA, 20% glycerol, 0.1% Tergitol, 0.5 mM dithiothreitol; 2 hours at 4°C; eluted with 3X-FLAG peptides; LC-MS/MS; backgrounds: wild-type Col-0, and sln, mbd5 mbd6 and acd21 mutants where binding was kept
[1] = target: T1, methyl-CpG binding domain protein 5 (MBD5) (Arabidopsis thaliana) (UniProt Q9SNC0)
T1 sequence: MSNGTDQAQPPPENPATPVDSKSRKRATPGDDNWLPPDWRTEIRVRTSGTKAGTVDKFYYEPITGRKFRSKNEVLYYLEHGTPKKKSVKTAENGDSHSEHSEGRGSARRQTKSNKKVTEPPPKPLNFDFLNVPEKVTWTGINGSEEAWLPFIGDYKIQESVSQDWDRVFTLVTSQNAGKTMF

[2] = target: T2, methyl-CpG binding domain protein 6 (MBD6) (Arabidopsis thaliana) (UniProt Q9LTJ1)
T2 sequence: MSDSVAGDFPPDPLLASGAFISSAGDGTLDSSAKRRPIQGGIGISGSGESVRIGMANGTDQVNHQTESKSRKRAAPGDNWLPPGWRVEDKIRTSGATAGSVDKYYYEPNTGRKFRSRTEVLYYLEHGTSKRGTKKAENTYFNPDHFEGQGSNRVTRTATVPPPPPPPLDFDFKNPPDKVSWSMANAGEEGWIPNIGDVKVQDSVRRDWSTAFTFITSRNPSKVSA

[3] = target: ACD15.5/RDS2 (ACD15) (Arabidopsis thaliana) (UniProt Q9S842)

Molecule | binding [1] | binding [2] | binding [3]
ACD15.5/RDS2 (ACD15) (from UniProt Q9S842) | binds | binds | –
methyl-CpG binding domain protein 5 (MBD5) (protein, UniProt Q9SNC0 1-182) MSNGTDQAQPPPENPATPVDSKSRKRATPGDDNWLPPDWRTEIRVRTSGTKAGTVDKFYYEPITGRKFRSKNEVLYYLEHGTPKKKSVKTAENGDSHSEHSEGRGSARRQTKSNKKVTEPPPKPLNFDFLNVPEKVTWTGINGSEEAWLPFIGDYKIQESVSQDWDRVFTLVTSQNAGKTMF | – | – | binds
methyl-CpG binding domain protein 6 (MBD6) (protein, UniProt Q9LTJ1 1-225) MSDSVAGDFPPDPLLASGAFISSAGDGTLDSSAKRRPIQGGIGISGSGESVRIGMANGTDQVNHQTESKSRKRAAPGDNWLPPGWRVEDKIRTSGATAGSVDKYYYEPNTGRKFRSRTEVLYYLEHGTSKRGTKKAENTYFNPDHFEGQGSNRVTRTATVPPPPPPPLDFDFKNPPDKVSWSMANAGEEGWIPNIGDVKVQDSVRRDWSTAFTFITSRNPSKVSA | – | – | binds
